Laboratory results: PubChem BioAssay AID602196 (INSERM, 2012)

Purpose: 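Modifiers of cisplatin sensitivity in A549 cells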
System: human A549 lung cancer cells
Reagent: siRNA pair against human genes
Time to read-out: 48 h transfection before cisplatin; time from cisplatin to read-out not stated
Treatment: cisplatin at a dose killing half of control-siRNA cells; exact dose and duration not given
Measurement: 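Cisplatin cell death as a shift from the 50% death seen with control siRNA; siRNAs toxic or growth-blocking alone scored 0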
Scale: two-siRNA summed score (-2 to +2): higher = both siRNAs protect from cisplatin killing; -2 means both sensitise; mean protection from cisplatin (shift in death): higher = protection from cisplatin killing
Active means: 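siRNAs harmful alone (LDH or WST-1) get 0; others get +1 for less and -1 for more cisplatin killing; genes are active when the two siRNAs give the same sign, summing to ±2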
Meaning of the calls: active = both siRNAs shift cisplatin killing the same way; inactive = no consistent shift, or siRNA harmful alone
In all, the deposit lists about 23,000 reagents; this is an unselected part. 455 of them (2%) count as active. 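Active includes both protection and sensitisation; some change values fall well beyond the stated -50 to +50 range.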 A number with no mark means an inactive call. The numbers tell different reagents against one gene apart. Not all columns of the deposit are shown. Reagent sequences are not shown. Not given: the amount of reagent.

With knock-down of KCNN1, the screen gave two-siRNA summed score (-2 to +2) = -1; mean protection from cisplatin (shift in death) (%) = -5.4.
With knock-down of ZNF706 the results were two-siRNA summed score (-2 to +2) = 0; mean protection from cisplatin (shift in death) (%) = 12.9.
After knock-down of CROT, the record shows two-siRNA summed score (-2 to +2) = -1; mean protection from cisplatin (shift in death) (%) = -8.2.
Silencing of CLEC12B gave: two-siRNA summed score (-2 to +2) = 0; mean protection from cisplatin (shift in death) (%) = 13.4.
LOC402539 scored two-siRNA summed score (-2 to +2) = 0; mean protection from cisplatin (shift in death) (%) = 13.9.
Against DNAL4, the entry reads two-siRNA summed score (-2 to +2) = 0; mean protection from cisplatin (shift in death) (%) = 1.9.
EDNRA showed two-siRNA summed score (-2 to +2) = -1; mean protection from cisplatin (shift in death) (%) = -7.9.
With knock-down of SUMO3 the results were two-siRNA summed score (-2 to +2) = 0; mean protection from cisplatin (shift in death) (%) = 7.3.
ETFA showed two-siRNA summed score (-2 to +2) = 0; mean protection from cisplatin (shift in death) (%) = -4.9.
For TMEM222 the deposit lists two-siRNA summed score (-2 to +2) = 0; mean protection from cisplatin (shift in death) (%) = 3.3.
PPIAP33 showed two-siRNA summed score (-2 to +2) = 0; mean protection from cisplatin (shift in death) (%) = 1.9.
Depletion of PCDH20 resulted in: two-siRNA summed score (-2 to +2) = 1; mean protection from cisplatin (shift in death) (%) = 17.1.
With knock-down of RRP9, the screen gave two-siRNA summed score (-2 to +2) = 0; mean protection from cisplatin (shift in death) (%) = 12.6.
Knock-down of TPSD1 gave: two-siRNA summed score (-2 to +2) = 0; mean protection from cisplatin (shift in death) (%) = 9.8.
MYO18A #1 gave two-siRNA summed score (-2 to +2) = 0; mean protection from cisplatin (shift in death) (%) = 8.6.
After knock-down of MYO18A #2, the screen gave two-siRNA summed score (-2 to +2) = 1; mean protection from cisplatin (shift in death) (%) = 11.3.
After knock-down of NDUFS5 the results were two-siRNA summed score (-2 to +2) = 0; mean protection from cisplatin (shift in death) (%) = -11.4.
Silencing of NFKBID gave: two-siRNA summed score (-2 to +2) = 0; mean protection from cisplatin (shift in death) (%) = 0.7.
PUS1 gave two-siRNA summed score (-2 to +2) = 0; mean protection from cisplatin (shift in death) (%) = 4.1.
For FRMD8, the values are two-siRNA summed score (-2 to +2) = 0; mean protection from cisplatin (shift in death) (%) = -9.4.
Knock-down of GCSAML came out at: two-siRNA summed score (-2 to +2) = 0; mean protection from cisplatin (shift in death) (%) = 6.
CDX4 gave two-siRNA summed score (-2 to +2) = 0; mean protection from cisplatin (shift in death) (%) = 1.8.
Against LOC392584 the deposit lists two-siRNA summed score (-2 to +2) = 0; mean protection from cisplatin (shift in death) (%) = 7.
Depletion of CPN1 gave: two-siRNA summed score (-2 to +2) = 1; mean protection from cisplatin (shift in death) (%) = -1.3.
After knock-down of DVL2, the screen gave two-siRNA summed score (-2 to +2) = 0; mean protection from cisplatin (shift in death) (%) = -8.1.
GLDN gave two-siRNA summed score (-2 to +2) = 0; mean protection from cisplatin (shift in death) (%) = 2.5.
S100A6 gave two-siRNA summed score (-2 to +2) = 0; mean protection from cisplatin (shift in death) (%) = 2.8.
With knock-down of LOC400877, the record shows two-siRNA summed score (-2 to +2) = 0; mean protection from cisplatin (shift in death) (%) = 3.9.
Depletion of PTCRA came out at: two-siRNA summed score (-2 to +2) = -1; mean protection from cisplatin (shift in death) (%) = -13.
Against MCC the deposit lists two-siRNA summed score (-2 to +2) = 0; mean protection from cisplatin (shift in death) (%) = 10.7.
PPDPFL showed two-siRNA summed score (-2 to +2) = 0; mean protection from cisplatin (shift in death) (%) = 24.3.
